Results are given in words; binding and its absence hold for the method and conditions named. In cells and extracts the contact can be indirect. Some binding calls cover weakened binding; strength is not graded here.

Protein sequences, listed by entry. Tags and fused reporters are not part of them.
UniProt Q15366: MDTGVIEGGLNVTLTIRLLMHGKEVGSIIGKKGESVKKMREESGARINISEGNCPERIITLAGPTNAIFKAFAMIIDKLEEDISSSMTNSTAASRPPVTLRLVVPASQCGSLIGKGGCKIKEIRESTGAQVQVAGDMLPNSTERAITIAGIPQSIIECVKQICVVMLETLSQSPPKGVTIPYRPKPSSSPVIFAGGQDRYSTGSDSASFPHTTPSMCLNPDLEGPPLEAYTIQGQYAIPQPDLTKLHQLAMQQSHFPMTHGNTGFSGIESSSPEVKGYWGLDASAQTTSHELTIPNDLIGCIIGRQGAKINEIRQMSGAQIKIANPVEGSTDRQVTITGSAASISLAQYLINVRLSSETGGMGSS
UniProt Q15365: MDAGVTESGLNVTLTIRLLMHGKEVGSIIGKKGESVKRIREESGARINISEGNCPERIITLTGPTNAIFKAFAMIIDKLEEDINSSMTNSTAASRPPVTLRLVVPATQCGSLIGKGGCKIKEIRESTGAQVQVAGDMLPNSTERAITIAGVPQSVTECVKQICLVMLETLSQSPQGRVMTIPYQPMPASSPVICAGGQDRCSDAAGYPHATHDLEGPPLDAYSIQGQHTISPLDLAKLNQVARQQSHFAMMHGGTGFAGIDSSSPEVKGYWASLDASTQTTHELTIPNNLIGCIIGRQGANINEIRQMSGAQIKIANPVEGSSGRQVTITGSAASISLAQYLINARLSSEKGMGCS
UniProt Q13435: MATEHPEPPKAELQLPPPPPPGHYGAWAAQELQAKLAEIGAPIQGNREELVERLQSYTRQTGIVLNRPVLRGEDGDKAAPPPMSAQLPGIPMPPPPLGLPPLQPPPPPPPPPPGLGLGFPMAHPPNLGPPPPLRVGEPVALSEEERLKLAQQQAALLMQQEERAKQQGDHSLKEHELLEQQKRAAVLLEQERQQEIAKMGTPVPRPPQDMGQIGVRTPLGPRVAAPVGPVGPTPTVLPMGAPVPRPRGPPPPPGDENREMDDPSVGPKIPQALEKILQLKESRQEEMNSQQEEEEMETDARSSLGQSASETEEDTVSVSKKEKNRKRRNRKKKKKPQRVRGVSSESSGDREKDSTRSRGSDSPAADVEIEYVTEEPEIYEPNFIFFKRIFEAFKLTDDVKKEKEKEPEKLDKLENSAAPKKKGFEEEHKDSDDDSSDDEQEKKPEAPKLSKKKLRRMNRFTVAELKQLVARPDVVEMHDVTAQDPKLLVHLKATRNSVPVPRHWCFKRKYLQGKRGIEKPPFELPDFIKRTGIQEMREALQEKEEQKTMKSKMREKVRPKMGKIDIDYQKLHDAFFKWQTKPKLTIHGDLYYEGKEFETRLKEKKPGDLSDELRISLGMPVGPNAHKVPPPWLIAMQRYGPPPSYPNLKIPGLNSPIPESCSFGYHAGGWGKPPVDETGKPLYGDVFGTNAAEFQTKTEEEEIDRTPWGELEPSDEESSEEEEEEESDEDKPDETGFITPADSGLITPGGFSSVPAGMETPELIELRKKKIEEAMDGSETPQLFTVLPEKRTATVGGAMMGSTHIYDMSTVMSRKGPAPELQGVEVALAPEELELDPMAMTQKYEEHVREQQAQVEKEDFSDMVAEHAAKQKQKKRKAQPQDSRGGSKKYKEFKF

For test [1], the target named is αCP2 (human (endogenous in K562)) (UniProt Q15366). Description: co-IP; K562 lysate in 50 mM HEPES pH 7.4, 150 mM NaCl, 1 mM EDTA, 10% glycerol, 1% Triton-X-100, 100 μg/ml RNase A, 4°C; IP with isotype-specific antisera to αCP1 or αCP2 on magnetic beads, preimmune serum as control; Western blot for SF3B2 and U2AF65.
For test [2], the target named is αCP1 (human (endogenous in K562)) (UniProt Q15365). Described as above.

Consider “subunit 2 of the splicing factor 3b protein complex, SF3B2–145 (from UniProt Q13435 1-895)”, for which the binding result in test [1] and in test [2] was “binds” throughout.

Source of the values: publication PMC4797308.
